Literature values as cited in patent US20050255161A1, “Method for the long term stabilization of labile compounds at room temperature in pharmaceutical preparations containing water” (priority 2004, published 2005).
At least one structure is not confirmed: it was looked up by name or label, or the drawing left a doubt.

System: ADP-induced human platelet aggregation
Details: human platelets, read-out: IC50 for the inhibition of ADP-induced human platelet aggregation

## CCCCC[C@H](O)/C=C/[C@H]1[C@H](O)CC(=O)[C@@H]1CCCCCCC(=O)O [prostaglandin E1, (13E)-(15S)-11alpha, 15-dihydroxy-9-oxoprost-13-enoate]
  IC50: 40 nM
